Some of the results follow.
Compound: CC[C@@H]1C(=O)N(C)c2cnc(Nc3ccc(C(=O)NC4CCN(C)CC4)cc3OC)nc2N1C1CCCC1
Test: log2 fold change, soluble protein after heating vs DMSO (PISA); higher = thermal stabilisation; K562 cells, 10 uM, 30 min; active = over 0.2 and 3.5 SD of the protein, either way, in both replicates (recomputed)
Method in brief: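 Soluble protein was defined as the supernatant after 21,000xg for 90 min. It came from K562 cells at 2×10^6 cells/mL given 10 μM compound for 30 min, heated in aliquots for 3 min across 48°C-58°C, pooled, and extracted in PBS with 0.5% NP-40 at 4°C, and was quantified by TMTpro 16plex LC-MS/MS with equalised channel sums. Thermal stability against control samples, from duplicates, is reported as log2 fold change.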

By UniProt entry, the sequences of proteins in these tests, tags left out. Where a name states a change or a piece, a line headed by the entry shows the natural chain unless it says otherwise.
UniProt Q969G6: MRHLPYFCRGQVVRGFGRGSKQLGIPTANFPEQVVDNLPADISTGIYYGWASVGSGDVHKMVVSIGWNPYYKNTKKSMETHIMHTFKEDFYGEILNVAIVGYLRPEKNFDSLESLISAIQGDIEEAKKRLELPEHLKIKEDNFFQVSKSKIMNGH
UniProt P84095: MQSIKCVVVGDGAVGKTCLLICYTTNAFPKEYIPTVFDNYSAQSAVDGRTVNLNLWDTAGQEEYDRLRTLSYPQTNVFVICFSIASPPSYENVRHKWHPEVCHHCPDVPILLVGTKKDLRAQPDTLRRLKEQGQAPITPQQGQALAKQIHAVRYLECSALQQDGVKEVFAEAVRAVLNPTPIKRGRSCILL
UniProt Q9NWS8: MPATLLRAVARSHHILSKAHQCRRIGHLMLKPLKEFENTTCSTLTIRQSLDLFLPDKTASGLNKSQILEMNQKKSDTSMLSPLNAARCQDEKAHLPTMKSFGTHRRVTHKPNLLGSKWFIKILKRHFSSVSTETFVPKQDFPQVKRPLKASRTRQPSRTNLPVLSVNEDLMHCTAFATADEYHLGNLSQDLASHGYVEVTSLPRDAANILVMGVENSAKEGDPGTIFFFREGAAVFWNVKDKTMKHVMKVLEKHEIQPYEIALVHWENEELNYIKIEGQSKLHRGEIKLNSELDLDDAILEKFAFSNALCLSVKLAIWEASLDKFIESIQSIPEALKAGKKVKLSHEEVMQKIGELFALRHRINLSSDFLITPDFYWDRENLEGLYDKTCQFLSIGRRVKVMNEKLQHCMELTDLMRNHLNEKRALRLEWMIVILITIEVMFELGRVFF
UniProt Q9P258, whole entry, looked up: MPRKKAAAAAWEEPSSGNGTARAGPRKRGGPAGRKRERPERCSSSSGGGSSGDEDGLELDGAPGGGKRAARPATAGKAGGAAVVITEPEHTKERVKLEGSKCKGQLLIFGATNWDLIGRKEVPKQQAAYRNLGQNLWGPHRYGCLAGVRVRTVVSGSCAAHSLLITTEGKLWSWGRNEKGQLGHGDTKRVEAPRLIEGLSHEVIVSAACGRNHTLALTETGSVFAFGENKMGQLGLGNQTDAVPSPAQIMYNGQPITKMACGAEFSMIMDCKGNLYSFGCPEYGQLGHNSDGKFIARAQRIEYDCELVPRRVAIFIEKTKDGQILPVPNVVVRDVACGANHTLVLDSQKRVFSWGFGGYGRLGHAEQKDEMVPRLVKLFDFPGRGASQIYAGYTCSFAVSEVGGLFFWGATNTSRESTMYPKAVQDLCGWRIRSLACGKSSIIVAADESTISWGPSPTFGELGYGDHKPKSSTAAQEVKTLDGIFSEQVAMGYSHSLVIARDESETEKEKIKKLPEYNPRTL
UniProt Q06330: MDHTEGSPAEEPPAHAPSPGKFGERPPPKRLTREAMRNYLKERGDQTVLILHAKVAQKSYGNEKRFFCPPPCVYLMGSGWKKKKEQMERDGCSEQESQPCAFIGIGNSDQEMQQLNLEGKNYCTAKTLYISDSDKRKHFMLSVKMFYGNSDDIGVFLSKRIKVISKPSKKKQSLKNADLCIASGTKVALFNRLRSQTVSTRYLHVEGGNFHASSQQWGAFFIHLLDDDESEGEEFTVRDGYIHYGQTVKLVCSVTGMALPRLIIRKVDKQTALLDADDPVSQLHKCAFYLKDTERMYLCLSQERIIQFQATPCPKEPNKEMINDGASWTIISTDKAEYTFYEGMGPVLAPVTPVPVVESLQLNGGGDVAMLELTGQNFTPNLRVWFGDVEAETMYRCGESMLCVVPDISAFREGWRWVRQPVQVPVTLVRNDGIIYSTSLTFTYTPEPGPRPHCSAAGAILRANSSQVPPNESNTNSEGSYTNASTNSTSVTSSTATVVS
UniProt Q9Y3B8: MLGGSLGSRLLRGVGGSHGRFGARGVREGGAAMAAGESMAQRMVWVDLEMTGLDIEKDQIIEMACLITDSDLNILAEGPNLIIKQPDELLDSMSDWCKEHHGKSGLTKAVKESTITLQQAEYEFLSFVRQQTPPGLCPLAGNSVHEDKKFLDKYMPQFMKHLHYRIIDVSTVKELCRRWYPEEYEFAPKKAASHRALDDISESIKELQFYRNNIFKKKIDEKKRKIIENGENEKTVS
UniProt P35241, whole entry, looked up: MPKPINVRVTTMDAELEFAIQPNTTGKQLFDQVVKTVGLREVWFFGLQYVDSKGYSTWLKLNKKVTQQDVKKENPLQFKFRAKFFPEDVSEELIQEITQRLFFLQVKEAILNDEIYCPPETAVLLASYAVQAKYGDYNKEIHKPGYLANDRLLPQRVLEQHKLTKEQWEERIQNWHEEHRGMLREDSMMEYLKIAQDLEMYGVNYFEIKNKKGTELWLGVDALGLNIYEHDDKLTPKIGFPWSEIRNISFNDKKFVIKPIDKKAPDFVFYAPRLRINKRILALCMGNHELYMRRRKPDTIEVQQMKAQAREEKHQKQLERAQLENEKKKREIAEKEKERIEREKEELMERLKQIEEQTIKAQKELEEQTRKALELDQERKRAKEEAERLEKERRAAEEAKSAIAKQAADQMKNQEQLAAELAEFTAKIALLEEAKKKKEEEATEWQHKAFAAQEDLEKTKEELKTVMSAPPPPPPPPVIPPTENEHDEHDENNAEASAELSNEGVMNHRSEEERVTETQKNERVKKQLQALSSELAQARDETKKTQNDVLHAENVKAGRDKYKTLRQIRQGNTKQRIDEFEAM
UniProt P62745, whole entry, looked up: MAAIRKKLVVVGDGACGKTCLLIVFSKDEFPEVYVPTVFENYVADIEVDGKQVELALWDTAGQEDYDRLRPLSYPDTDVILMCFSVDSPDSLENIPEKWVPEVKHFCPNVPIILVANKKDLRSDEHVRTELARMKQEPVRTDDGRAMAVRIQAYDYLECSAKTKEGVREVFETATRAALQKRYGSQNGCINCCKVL
UniProt Q8TEB9: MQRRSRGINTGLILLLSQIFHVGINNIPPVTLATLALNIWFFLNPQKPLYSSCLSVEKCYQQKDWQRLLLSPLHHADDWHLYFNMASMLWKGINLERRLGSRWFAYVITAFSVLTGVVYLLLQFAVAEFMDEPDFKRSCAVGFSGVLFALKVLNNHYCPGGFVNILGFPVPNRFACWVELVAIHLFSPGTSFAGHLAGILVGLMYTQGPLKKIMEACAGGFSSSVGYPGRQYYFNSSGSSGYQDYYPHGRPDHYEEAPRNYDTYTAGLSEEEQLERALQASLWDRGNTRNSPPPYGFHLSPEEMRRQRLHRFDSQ
UniProt Q9Y508: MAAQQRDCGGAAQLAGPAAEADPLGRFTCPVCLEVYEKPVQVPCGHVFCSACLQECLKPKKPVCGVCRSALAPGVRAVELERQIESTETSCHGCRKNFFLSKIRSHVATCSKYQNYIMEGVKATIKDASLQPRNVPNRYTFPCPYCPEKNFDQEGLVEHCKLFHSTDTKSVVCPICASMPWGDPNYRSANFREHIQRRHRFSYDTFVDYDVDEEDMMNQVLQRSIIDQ
UniProt Q8ND24: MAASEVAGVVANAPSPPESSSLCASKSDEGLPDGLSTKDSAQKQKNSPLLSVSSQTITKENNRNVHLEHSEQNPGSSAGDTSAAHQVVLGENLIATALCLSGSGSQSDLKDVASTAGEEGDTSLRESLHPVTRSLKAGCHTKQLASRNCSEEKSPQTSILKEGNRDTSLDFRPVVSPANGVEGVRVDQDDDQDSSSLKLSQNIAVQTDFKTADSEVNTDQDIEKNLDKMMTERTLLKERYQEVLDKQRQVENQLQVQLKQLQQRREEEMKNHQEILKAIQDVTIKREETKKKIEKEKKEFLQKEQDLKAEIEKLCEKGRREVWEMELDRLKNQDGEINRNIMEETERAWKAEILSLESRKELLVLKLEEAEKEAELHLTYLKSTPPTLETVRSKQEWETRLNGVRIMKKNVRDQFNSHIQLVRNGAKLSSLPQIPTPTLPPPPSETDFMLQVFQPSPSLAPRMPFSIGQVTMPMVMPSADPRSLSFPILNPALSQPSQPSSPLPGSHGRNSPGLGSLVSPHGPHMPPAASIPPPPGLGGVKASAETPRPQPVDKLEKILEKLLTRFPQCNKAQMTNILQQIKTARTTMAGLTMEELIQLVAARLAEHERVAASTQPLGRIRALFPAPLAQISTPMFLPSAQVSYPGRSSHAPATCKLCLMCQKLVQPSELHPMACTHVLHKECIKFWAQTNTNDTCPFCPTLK
UniProt Q96I51, whole entry, looked up: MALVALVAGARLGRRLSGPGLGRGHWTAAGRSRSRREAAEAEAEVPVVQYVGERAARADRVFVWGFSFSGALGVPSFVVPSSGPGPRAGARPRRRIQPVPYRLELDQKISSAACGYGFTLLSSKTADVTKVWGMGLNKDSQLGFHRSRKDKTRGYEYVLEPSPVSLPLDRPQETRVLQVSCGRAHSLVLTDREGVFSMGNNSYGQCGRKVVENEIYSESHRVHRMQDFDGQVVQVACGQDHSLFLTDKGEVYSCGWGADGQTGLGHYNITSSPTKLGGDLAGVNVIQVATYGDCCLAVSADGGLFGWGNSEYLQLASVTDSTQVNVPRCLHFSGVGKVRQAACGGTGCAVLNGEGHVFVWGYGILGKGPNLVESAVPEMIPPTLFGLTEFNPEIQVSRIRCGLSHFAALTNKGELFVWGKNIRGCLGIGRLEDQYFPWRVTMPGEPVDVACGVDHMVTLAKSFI
UniProt Q96TC7: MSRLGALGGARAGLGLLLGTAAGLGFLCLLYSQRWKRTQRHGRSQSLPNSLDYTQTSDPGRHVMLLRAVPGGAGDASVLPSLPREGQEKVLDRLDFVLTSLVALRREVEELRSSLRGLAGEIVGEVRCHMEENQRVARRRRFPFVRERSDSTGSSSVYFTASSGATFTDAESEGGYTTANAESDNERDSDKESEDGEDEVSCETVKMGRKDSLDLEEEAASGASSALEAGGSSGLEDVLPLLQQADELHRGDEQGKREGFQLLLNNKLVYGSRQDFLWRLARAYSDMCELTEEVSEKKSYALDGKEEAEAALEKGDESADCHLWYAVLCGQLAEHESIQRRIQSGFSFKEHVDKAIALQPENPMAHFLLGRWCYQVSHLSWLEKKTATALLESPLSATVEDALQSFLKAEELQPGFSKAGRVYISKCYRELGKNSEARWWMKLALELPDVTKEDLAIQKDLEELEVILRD
UniProt P51606: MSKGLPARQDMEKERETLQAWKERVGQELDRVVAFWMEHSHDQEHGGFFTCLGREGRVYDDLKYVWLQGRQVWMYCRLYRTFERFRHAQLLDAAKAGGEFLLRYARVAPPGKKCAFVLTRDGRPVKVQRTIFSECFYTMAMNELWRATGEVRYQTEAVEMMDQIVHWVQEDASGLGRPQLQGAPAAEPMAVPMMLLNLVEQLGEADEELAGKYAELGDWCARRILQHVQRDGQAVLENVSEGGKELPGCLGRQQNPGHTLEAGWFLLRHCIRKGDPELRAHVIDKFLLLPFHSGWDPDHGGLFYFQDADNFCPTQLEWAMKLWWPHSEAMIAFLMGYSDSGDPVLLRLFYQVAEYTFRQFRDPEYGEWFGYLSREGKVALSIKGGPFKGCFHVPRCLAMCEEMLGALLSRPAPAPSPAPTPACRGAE
UniProt P35249, whole entry, looked up: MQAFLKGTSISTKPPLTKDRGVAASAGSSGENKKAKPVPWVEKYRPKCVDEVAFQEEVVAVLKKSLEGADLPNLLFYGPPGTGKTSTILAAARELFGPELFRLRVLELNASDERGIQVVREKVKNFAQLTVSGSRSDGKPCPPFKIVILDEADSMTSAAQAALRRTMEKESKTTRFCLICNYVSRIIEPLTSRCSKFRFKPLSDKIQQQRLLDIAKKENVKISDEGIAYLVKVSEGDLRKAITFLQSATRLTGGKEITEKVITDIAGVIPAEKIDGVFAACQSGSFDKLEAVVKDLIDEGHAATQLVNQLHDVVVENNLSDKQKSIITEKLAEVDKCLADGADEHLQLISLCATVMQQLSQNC
UniProt Q96HR9: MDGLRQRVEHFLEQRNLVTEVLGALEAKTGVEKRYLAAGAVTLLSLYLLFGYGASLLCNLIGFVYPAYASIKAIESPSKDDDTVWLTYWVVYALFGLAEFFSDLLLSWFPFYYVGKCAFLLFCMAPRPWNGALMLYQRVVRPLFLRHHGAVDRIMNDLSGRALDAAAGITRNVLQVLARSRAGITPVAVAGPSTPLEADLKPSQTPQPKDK
UniProt Q9BWE0: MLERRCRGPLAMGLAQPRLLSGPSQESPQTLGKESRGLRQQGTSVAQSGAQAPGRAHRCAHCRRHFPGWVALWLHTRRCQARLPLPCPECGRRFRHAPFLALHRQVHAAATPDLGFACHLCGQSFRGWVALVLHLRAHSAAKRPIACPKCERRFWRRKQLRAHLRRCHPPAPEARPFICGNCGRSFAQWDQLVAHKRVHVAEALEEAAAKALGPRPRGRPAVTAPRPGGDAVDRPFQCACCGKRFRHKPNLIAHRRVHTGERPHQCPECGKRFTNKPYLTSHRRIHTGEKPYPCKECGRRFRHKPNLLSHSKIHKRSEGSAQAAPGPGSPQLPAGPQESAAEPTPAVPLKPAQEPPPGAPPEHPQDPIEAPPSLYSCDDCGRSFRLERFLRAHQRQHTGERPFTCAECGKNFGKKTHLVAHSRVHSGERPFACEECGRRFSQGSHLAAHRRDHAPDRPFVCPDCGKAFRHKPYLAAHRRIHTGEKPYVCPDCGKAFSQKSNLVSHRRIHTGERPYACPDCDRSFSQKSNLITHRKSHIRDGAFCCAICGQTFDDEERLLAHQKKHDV

log2 fold change, inactive:
RNF24 isoform 2 (UniProt Q9Y225) 0.166, RFK (UniProt Q969G6) 0.024, RNF181 (UniProt Q9P0P0) 0.024, RHOG (UniProt P84095) 0.011, RCSD1 (UniProt Q6JBY9) -0.009, RMND1 (UniProt Q9NWS8) 0.018, RNF213 isoform 4 (UniProt Q63HN8) 0.009, REPS1 (UniProt Q96D71) 0.069, REEP3 (UniProt Q6NUK4) 0.02, RFX1 (UniProt P22670) 0.033, RBMX (UniProt P38159) 0.166, RIOK1 (UniProt Q9BRS2) 0.066, RHOT2 (UniProt Q8IXI1) 0.007, RILP (UniProt Q96NA2) -0.058, RHAG (UniProt Q02094) -0.051, RCC2 (UniProt Q9P258) -0.024, RFT1 (UniProt Q96AA3) 0.098, RBPJ (UniProt Q06330) 0.05, REXO2 (UniProt Q9Y3B8) 0.018, RDX (UniProt P35241) 0.04, RHOC (UniProt P08134) 0.06, RNF113A (UniProt O15541) 0.039, RBM38 (UniProt Q9H0Z9) 0.027, RHOB (UniProt P62745) 0.087, RHBDD1 (UniProt Q8TEB9) 0.076, RNF114 (UniProt Q9Y508) 0.004, RCN2 isoform 2 (UniProt Q14257) 0, RNF214 (UniProt Q8ND24) 0.028, RELN (UniProt P78509) 0.011, RCC1L (UniProt Q96I51) 0.031, REEP5 (UniProt Q00765) 0.066, RMDN3 (UniProt Q96TC7) -0.029, RENBP (UniProt P51606) 0.084, RFC4 (UniProt P35249) -0.029, REEP6 (UniProt Q96HR9) 0.055, RMDN1 (UniProt Q96DB5) -0.079, RNF11 (UniProt Q9Y3C5) -0.032, RCCD1 (UniProt A6NED2) -0.068, REPIN1 isoform 4 (UniProt Q9BWE0) -0.018
